Earlier results in patent publication US20210290598A1, “MEDICAMENT USEFUL FOR CARDIOVASCULAR DISEASE” (NATIONAL UNIVERSITY CORPORATION OKAYAMA UNIVERSITY, priority 2018, published 2021).
At least one structure is not confirmed: it was looked up by name or label, or the drawing left a doubt.

Test system: patients with type 2 diabetes
Conditions: 9,795 patients aged 50-75 years with type 2 diabetes, five years, versus placebo; cited from earlier work

## CC(C)OC(=O)C(C)(C)Oc1ccc(C(=O)c2ccc(Cl)cc2)cc1 [fenofibrate]
  efficacy on coronary event (primary endpoint): did not show efficacy
